Experimental data reported in paper PMC3977970.

By UniProt entry, the sequences of proteins in these tests, tags left out.
UniProt Q9Y6J8: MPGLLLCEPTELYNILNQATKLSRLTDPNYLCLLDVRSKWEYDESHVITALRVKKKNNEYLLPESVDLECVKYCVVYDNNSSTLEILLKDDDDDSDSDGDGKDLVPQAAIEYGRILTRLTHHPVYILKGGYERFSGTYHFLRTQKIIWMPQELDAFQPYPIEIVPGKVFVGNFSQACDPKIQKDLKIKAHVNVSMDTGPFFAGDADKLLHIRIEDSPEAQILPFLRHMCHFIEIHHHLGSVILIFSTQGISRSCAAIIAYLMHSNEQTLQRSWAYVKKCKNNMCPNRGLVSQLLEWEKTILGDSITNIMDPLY

Molecular target: TAP-epitope-tagged MK-STYX (human) (UniProt Q9Y6J8)
Test: affinity purification with mass spectrometry; tandem affinity purification (two steps) of N- or C-terminally TAP-tagged MK-STYX from HeLa cells, each in triplicate; SDS-PAGE, in-gel trypsin digest, LC-MS/MS; filtered against ~350 control TAP experiments

binding: binds
B1: PTPMT1 (PTP localized to mitochondrion 1), endogenous (protein, UniProt Q8WUK0-1 28-201)
chain: KVPGRAHRDWYHRIDPTVLLGALPLRSLTRQLVQDENVRGVITMNEEYETRFLCNSSQEWKRLGVEQLRLSTVDMTGIPTLDNLQKGVQFALKYQSLGQCVYVHCKAGRSRSATMVAAYLIQVHKWSPEEAVRAIAKIRSYIHIRPGQLDVLKEFHKQITARATKDGTFVISKT

Results are given in words; binding and its absence hold for the method and conditions named. Binding seen in cells or lysates may run through a third protein. Here binding means that the protein was enriched with, or labelled near, the bait; the list need not be complete.
